Experimental data taken from paper PMC7048073.
These are yes or no findings as the source states them, for the method shown. For some of these results: A result given as binding can be weak or reduced; the word gives no strength.

What was measured:
Experiment in all cases: two-hybrid; Matchmaker Two-Hybrid System (Clontech); RGB1 as prey (AD, pGADT7), PXLGs as bait (BD, pGBKT7); with a self-activation test
[1] = target: PXLG3 (putative extra-large G protein 3) (rice)
[2] = target: PXLG4 (putative extra-large G protein 4) (rice)
[3] = target: PXLG1 (putative extra-large G protein 1) (rice)
[4] = target: PXLG2 (putative extra-large G protein 2) (rice) (UniProt Q2R941)

binding [1]: no binding
binding [2]: no binding
binding [3]: no binding
binding [4]: binds
B1: RGB1 (rice heterotrimeric G protein Gβ subunit) (protein, UniProt Q40687 1-380)
chain: MASVAELKEKHAAATASVNSLRERLRQRRQMLLDTDVERYSRTQGRTPVSFNPTDLVCCRTLQGHSGKVYSLDWTPEKNWIVSASQDGRLIVWNALTSQKTHAIKLHCPWVMTCAFAPNGQSVACGGLDSACSIFNLNSQADRDGNIPVSRILTGHKGYVSSCQYVPDQETRLITSSGDQTCVLWDVTTGQRISIFGGEFPSGHTADVLSLSINSSNSNMFVSGSCDATVRLWDIRIASRAVRTYHGHEGDINSVKFFPDGQRFGTGSDDGTCRLFDVRTGHQLQVYSREPDRNDNELPTVTSIAFSISGRLLFAGYSNGDCYVWDTLLAEVVLNLGNLQNSHEGRISCLGLSSDGSALCTGSWDKNLKIWAFSGHRKIV
